In article PMC5780496:
No constants are given. Whether binding was seen depends on the method and setting. In cells and extracts the contact can be indirect. Some binding calls cover weakened binding; strength is not graded here. For part of these data: Where a sequence is shown, tags or fusion partners need not be part of it. Each block holds one binder with its values, some of them ahead of it.

Tests used:
Test in all cases: co-IP; MCF12A cells 20 hours post-transfection, lysed in 50 mM Tris-HCl pH 7.5, 150 mM NaCl, 1% Triton-X100, 0.27 M sucrose; anti-HA or anti-Flag affinity gel, 2 hours at 4 °C; immunoblot; in some samples active PAK1(K141A) co-expressed
[1] = biological target: T1, Ser-385-phosphorylated form of HACE1, Q8IYU2; conditions: remark: other sources report otherwise
T1 chain: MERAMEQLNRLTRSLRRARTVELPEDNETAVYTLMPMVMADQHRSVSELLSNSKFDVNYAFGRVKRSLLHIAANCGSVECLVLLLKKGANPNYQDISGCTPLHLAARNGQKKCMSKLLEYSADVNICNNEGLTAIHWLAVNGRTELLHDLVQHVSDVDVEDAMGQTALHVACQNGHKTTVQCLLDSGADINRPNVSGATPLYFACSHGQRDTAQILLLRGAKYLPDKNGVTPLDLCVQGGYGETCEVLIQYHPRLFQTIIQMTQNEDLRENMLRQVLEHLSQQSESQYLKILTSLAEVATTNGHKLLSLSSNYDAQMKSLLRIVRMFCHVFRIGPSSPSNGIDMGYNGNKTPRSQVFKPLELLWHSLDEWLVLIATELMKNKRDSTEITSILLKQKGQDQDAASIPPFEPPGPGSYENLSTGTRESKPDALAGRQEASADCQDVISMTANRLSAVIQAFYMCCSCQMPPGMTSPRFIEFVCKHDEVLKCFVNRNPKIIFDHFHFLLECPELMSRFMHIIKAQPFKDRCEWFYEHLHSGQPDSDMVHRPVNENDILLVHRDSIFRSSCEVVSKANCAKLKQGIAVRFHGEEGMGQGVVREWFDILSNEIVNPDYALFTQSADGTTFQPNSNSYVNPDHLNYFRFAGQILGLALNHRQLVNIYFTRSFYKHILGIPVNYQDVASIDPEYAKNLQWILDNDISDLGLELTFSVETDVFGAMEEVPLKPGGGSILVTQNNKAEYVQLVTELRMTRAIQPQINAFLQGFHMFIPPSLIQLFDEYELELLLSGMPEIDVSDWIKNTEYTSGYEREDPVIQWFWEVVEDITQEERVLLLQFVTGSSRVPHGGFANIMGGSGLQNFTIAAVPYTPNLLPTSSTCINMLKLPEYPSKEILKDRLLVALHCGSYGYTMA

[2] = biological target: HACE1(S385E), phospho-mimetic mutant (UniProt Q8IYU2)
[3] = biological target: T2, HACE1(WT), full length (FL), HA- or myc-tagged, Q8IYU2; conditions: remark: other sources report otherwise
T2 chain: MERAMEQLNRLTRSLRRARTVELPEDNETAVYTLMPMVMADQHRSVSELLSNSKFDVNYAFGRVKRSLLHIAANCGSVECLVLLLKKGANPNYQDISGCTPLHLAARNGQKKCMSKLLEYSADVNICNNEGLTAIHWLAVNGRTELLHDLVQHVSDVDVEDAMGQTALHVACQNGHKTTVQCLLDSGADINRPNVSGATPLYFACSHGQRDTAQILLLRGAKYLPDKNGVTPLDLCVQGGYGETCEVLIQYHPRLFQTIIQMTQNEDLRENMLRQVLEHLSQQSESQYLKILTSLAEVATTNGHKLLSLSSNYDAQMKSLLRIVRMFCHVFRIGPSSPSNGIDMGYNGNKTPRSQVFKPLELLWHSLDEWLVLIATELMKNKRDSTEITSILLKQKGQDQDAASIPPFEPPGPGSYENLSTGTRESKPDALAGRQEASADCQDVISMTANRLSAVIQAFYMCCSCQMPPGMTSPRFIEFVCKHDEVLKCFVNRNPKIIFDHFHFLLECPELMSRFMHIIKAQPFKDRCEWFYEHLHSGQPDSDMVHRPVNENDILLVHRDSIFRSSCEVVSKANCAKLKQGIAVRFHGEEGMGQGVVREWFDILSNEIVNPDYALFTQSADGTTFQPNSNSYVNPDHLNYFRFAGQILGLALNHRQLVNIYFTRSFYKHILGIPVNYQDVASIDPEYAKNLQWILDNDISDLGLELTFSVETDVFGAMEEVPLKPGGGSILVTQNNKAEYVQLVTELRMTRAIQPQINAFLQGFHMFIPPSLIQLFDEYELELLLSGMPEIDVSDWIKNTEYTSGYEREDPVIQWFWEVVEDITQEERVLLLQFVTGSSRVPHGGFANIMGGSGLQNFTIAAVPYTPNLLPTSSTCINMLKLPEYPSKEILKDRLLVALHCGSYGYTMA

binding [1]: binds
B1: Ser-385-phosphorylated form of HACE1, Q8IYU2 1-909 (enzyme)
chain: MERAMEQLNRLTRSLRRARTVELPEDNETAVYTLMPMVMADQHRSVSELLSNSKFDVNYAFGRVKRSLLHIAANCGSVECLVLLLKKGANPNYQDISGCTPLHLAARNGQKKCMSKLLEYSADVNICNNEGLTAIHWLAVNGRTELLHDLVQHVSDVDVEDAMGQTALHVACQNGHKTTVQCLLDSGADINRPNVSGATPLYFACSHGQRDTAQILLLRGAKYLPDKNGVTPLDLCVQGGYGETCEVLIQYHPRLFQTIIQMTQNEDLRENMLRQVLEHLSQQSESQYLKILTSLAEVATTNGHKLLSLSSNYDAQMKSLLRIVRMFCHVFRIGPSSPSNGIDMGYNGNKTPRSQVFKPLELLWHSLDEWLVLIATELMKNKRDSTEITSILLKQKGQDQDAASIPPFEPPGPGSYENLSTGTRESKPDALAGRQEASADCQDVISMTANRLSAVIQAFYMCCSCQMPPGMTSPRFIEFVCKHDEVLKCFVNRNPKIIFDHFHFLLECPELMSRFMHIIKAQPFKDRCEWFYEHLHSGQPDSDMVHRPVNENDILLVHRDSIFRSSCEVVSKANCAKLKQGIAVRFHGEEGMGQGVVREWFDILSNEIVNPDYALFTQSADGTTFQPNSNSYVNPDHLNYFRFAGQILGLALNHRQLVNIYFTRSFYKHILGIPVNYQDVASIDPEYAKNLQWILDNDISDLGLELTFSVETDVFGAMEEVPLKPGGGSILVTQNNKAEYVQLVTELRMTRAIQPQINAFLQGFHMFIPPSLIQLFDEYELELLLSGMPEIDVSDWIKNTEYTSGYEREDPVIQWFWEVVEDITQEERVLLLQFVTGSSRVPHGGFANIMGGSGLQNFTIAAVPYTPNLLPTSSTCINMLKLPEYPSKEILKDRLLVALHCGSYGYTMA
modifications: here or on the partner: phosphoserine at 385; phosphoserine at 385

binding [2]: binds
B2: HACE1(S385E), phospho-mimetic mutant (enzyme, UniProt Q8IYU2 1-909)
chain: MERAMEQLNRLTRSLRRARTVELPEDNETAVYTLMPMVMADQHRSVSELLSNSKFDVNYAFGRVKRSLLHIAANCGSVECLVLLLKKGANPNYQDISGCTPLHLAARNGQKKCMSKLLEYSADVNICNNEGLTAIHWLAVNGRTELLHDLVQHVSDVDVEDAMGQTALHVACQNGHKTTVQCLLDSGADINRPNVSGATPLYFACSHGQRDTAQILLLRGAKYLPDKNGVTPLDLCVQGGYGETCEVLIQYHPRLFQTIIQMTQNEDLRENMLRQVLEHLSQQSESQYLKILTSLAEVATTNGHKLLSLSSNYDAQMKSLLRIVRMFCHVFRIGPSSPSNGIDMGYNGNKTPRSQVFKPLELLWHSLDEWLVLIATELMKNKRDETEITSILLKQKGQDQDAASIPPFEPPGPGSYENLSTGTRESKPDALAGRQEASADCQDVISMTANRLSAVIQAFYMCCSCQMPPGMTSPRFIEFVCKHDEVLKCFVNRNPKIIFDHFHFLLECPELMSRFMHIIKAQPFKDRCEWFYEHLHSGQPDSDMVHRPVNENDILLVHRDSIFRSSCEVVSKANCAKLKQGIAVRFHGEEGMGQGVVREWFDILSNEIVNPDYALFTQSADGTTFQPNSNSYVNPDHLNYFRFAGQILGLALNHRQLVNIYFTRSFYKHILGIPVNYQDVASIDPEYAKNLQWILDNDISDLGLELTFSVETDVFGAMEEVPLKPGGGSILVTQNNKAEYVQLVTELRMTRAIQPQINAFLQGFHMFIPPSLIQLFDEYELELLLSGMPEIDVSDWIKNTEYTSGYEREDPVIQWFWEVVEDITQEERVLLLQFVTGSSRVPHGGFANIMGGSGLQNFTIAAVPYTPNLLPTSSTCINMLKLPEYPSKEILKDRLLVALHCGSYGYTMA

binding [3]: binds
B3: HACE1(WT), full length (FL), HA- or myc-tagged, Q8IYU2 1-909 (enzyme)
chain: MERAMEQLNRLTRSLRRARTVELPEDNETAVYTLMPMVMADQHRSVSELLSNSKFDVNYAFGRVKRSLLHIAANCGSVECLVLLLKKGANPNYQDISGCTPLHLAARNGQKKCMSKLLEYSADVNICNNEGLTAIHWLAVNGRTELLHDLVQHVSDVDVEDAMGQTALHVACQNGHKTTVQCLLDSGADINRPNVSGATPLYFACSHGQRDTAQILLLRGAKYLPDKNGVTPLDLCVQGGYGETCEVLIQYHPRLFQTIIQMTQNEDLRENMLRQVLEHLSQQSESQYLKILTSLAEVATTNGHKLLSLSSNYDAQMKSLLRIVRMFCHVFRIGPSSPSNGIDMGYNGNKTPRSQVFKPLELLWHSLDEWLVLIATELMKNKRDSTEITSILLKQKGQDQDAASIPPFEPPGPGSYENLSTGTRESKPDALAGRQEASADCQDVISMTANRLSAVIQAFYMCCSCQMPPGMTSPRFIEFVCKHDEVLKCFVNRNPKIIFDHFHFLLECPELMSRFMHIIKAQPFKDRCEWFYEHLHSGQPDSDMVHRPVNENDILLVHRDSIFRSSCEVVSKANCAKLKQGIAVRFHGEEGMGQGVVREWFDILSNEIVNPDYALFTQSADGTTFQPNSNSYVNPDHLNYFRFAGQILGLALNHRQLVNIYFTRSFYKHILGIPVNYQDVASIDPEYAKNLQWILDNDISDLGLELTFSVETDVFGAMEEVPLKPGGGSILVTQNNKAEYVQLVTELRMTRAIQPQINAFLQGFHMFIPPSLIQLFDEYELELLLSGMPEIDVSDWIKNTEYTSGYEREDPVIQWFWEVVEDITQEERVLLLQFVTGSSRVPHGGFANIMGGSGLQNFTIAAVPYTPNLLPTSSTCINMLKLPEYPSKEILKDRLLVALHCGSYGYTMA
